Consider 26 molecules from article PMC5045598.

The chains behind the UniProt entries cited, without tags or fusion partners.
UniProt Q02539: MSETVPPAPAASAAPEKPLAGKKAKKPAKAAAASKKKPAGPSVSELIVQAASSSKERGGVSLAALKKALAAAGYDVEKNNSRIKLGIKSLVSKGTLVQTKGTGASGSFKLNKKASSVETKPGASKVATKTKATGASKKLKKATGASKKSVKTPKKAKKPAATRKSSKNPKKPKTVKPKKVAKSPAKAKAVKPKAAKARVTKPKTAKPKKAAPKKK
UniProt Q92522: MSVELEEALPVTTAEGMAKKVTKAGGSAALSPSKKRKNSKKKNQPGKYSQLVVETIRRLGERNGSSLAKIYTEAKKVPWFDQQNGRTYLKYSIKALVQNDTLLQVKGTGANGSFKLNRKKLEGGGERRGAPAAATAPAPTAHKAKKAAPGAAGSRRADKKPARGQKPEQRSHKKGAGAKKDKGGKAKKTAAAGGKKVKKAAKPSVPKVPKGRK
UniProt P21127: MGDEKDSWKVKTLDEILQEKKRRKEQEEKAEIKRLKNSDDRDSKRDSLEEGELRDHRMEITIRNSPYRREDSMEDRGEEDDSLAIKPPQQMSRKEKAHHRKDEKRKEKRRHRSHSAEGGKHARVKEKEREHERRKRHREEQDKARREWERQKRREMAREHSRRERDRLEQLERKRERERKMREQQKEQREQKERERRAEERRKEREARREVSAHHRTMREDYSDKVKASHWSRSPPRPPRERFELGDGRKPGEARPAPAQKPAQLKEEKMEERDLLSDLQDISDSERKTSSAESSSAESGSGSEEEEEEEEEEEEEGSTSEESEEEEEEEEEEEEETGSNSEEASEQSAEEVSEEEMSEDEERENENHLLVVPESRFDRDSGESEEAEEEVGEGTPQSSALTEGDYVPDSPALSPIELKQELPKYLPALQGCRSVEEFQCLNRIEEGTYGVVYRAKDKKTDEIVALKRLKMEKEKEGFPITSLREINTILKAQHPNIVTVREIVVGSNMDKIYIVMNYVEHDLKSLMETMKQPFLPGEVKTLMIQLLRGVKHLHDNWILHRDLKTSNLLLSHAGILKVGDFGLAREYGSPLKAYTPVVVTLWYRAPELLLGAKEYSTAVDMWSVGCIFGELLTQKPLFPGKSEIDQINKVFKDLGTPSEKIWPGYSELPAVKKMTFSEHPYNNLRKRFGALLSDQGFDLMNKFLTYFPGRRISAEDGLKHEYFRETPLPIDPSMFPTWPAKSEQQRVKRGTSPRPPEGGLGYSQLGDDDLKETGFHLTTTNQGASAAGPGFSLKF
UniProt P49321: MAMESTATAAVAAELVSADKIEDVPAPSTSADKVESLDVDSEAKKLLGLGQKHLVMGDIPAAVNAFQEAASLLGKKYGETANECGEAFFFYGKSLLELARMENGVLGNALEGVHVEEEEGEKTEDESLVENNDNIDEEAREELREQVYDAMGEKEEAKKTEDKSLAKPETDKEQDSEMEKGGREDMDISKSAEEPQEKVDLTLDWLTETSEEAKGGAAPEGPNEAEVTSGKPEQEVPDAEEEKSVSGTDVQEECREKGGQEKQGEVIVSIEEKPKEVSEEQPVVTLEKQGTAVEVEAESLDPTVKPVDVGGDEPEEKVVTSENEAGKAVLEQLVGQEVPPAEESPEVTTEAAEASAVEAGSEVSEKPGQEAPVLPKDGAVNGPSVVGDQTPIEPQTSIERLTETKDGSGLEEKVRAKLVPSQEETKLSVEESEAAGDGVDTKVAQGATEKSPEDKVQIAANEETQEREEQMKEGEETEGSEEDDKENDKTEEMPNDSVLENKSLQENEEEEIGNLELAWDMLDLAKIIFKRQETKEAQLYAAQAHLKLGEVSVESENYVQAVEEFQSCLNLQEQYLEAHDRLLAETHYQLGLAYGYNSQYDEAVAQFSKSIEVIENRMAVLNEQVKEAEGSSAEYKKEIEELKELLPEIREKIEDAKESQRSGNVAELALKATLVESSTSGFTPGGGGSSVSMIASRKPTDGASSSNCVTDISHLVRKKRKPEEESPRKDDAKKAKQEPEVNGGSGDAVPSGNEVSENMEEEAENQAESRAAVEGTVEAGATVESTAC
UniProt Q69YN4: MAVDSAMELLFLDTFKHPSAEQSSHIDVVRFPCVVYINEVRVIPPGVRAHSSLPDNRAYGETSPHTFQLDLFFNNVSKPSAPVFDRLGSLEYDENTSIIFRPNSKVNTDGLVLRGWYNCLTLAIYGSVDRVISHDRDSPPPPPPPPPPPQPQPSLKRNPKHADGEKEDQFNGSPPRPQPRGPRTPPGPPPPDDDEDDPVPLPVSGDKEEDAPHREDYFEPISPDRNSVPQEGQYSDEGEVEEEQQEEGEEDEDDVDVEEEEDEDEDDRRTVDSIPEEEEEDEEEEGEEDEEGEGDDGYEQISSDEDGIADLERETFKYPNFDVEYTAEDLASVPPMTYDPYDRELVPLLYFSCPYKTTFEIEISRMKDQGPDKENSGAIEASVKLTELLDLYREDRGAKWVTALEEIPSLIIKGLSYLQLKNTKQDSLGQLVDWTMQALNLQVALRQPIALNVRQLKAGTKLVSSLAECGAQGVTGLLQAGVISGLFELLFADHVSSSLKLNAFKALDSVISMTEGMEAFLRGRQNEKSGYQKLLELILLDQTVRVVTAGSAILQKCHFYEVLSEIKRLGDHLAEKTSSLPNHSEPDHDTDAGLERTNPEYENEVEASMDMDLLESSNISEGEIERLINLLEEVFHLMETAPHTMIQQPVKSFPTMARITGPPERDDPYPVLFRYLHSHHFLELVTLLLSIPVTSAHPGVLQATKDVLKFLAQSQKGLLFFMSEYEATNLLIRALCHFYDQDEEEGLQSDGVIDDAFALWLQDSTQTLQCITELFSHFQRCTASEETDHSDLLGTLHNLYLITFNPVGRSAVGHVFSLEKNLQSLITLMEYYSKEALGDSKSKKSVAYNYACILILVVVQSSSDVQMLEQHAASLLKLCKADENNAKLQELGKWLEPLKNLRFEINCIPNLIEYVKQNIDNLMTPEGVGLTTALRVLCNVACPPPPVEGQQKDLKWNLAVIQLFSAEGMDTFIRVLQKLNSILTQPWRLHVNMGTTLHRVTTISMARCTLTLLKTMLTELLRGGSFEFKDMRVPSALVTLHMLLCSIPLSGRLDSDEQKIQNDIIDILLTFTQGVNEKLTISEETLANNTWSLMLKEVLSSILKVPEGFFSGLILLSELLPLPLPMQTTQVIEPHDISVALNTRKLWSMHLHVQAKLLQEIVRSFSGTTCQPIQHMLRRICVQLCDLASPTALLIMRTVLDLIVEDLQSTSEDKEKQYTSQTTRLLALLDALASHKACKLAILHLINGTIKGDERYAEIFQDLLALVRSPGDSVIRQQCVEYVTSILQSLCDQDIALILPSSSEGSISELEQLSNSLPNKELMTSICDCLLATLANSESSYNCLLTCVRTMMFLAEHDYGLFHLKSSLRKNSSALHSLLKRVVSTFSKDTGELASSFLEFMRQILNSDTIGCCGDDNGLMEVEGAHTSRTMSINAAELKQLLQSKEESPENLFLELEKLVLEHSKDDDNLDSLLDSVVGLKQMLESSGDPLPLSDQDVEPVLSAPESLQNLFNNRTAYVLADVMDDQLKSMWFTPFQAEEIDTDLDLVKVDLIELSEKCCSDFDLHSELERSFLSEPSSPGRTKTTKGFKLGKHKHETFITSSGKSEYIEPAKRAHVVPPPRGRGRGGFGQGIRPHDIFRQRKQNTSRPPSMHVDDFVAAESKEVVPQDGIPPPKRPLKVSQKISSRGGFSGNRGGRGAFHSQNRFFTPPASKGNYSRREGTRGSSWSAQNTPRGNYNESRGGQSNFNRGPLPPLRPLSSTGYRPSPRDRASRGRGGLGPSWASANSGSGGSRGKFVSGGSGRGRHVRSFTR
UniProt Q9Y2T7: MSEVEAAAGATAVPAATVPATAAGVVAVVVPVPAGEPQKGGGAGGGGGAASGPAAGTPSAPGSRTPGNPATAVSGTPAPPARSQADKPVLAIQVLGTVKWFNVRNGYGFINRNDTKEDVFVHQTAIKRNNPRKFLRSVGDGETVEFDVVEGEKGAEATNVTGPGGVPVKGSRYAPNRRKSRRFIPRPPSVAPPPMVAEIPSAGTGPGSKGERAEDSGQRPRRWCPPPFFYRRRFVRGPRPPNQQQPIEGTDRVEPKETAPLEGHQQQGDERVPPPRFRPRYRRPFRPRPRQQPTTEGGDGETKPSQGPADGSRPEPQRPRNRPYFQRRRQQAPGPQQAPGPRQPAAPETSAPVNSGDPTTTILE
UniProt P67809: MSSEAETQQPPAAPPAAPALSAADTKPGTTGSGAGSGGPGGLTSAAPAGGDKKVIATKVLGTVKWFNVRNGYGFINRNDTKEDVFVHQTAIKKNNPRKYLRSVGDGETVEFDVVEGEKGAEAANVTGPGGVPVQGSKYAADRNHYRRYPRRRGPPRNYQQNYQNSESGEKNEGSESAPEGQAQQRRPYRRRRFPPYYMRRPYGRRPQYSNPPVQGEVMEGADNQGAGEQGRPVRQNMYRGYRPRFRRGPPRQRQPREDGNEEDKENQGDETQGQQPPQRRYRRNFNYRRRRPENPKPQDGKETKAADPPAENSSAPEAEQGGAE
UniProt Q5T200: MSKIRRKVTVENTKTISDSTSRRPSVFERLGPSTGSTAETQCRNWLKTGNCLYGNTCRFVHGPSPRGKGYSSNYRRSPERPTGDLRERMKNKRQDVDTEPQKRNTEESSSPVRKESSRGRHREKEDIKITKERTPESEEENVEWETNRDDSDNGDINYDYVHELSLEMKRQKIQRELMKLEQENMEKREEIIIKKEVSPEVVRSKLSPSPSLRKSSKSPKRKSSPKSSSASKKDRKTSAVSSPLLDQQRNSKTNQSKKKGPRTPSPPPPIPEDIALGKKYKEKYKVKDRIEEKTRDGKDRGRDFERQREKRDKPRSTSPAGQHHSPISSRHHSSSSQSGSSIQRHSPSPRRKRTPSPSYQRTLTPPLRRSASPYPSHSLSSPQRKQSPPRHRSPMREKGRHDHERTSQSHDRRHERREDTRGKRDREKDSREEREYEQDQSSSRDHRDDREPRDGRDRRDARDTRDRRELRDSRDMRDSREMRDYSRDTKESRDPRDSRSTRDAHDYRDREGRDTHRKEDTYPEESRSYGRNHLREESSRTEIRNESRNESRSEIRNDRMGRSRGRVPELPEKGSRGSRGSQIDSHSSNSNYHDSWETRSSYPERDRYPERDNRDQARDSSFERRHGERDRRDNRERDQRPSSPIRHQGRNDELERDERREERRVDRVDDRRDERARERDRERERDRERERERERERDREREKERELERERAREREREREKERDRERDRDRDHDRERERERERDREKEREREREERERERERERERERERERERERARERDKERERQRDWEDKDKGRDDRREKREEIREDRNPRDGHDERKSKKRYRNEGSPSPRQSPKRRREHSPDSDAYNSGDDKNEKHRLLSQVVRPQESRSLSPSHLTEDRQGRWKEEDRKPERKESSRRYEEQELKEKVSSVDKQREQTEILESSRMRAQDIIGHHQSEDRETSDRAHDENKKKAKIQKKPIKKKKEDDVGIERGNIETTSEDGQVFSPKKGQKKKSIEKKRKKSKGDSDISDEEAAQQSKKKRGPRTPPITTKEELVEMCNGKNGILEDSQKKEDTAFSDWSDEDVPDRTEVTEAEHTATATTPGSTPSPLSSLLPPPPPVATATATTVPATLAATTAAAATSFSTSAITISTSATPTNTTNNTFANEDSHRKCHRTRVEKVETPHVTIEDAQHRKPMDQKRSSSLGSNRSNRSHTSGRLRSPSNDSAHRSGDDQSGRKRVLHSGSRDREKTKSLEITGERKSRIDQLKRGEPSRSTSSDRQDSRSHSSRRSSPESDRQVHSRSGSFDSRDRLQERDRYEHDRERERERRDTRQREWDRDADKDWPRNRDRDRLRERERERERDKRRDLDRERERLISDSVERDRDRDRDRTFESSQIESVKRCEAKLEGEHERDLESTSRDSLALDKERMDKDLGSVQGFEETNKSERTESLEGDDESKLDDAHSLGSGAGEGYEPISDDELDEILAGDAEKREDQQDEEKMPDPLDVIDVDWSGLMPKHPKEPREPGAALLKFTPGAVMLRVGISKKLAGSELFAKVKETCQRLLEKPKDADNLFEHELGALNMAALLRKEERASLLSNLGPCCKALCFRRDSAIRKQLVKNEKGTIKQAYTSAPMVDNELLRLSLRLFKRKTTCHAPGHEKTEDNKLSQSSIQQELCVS
UniProt P06748: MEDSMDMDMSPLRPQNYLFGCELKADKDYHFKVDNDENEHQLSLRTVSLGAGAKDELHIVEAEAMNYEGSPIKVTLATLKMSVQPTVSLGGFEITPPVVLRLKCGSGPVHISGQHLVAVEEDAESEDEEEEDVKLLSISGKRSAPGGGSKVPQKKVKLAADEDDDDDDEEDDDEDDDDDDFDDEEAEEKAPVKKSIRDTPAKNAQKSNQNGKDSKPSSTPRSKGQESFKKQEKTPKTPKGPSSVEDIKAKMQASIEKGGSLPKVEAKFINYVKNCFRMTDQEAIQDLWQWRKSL

Holding throughout (test): affinity purification with mass spectrometry; 6 × His-tagged H1 variant from doxycycline-induced U2OS soluble whole cell extract (NP40 lysis buffer: 150 mM NaCl, 50 mM Tris pH7.5, 10 % glycerol, 0.75 % NP40); Mono Q column, then Ni2+ chelating column (wash 50 mM imidazole, elution 500 mM imidazole); peak fractions by LC-MS/MS in duplicate; mock purification from untransfected U2OS Tet/On cells as negative control; H1.1 eluted in two Mono Q peaks, each purified separately

Assay [1] has as its target 6 × His-tagged histone H1.1 (human) (UniProt Q02539).
In assay [2] the target is 6 × His-tagged histone H1.2 (human) (UniProt P16403).
Assay [3] has as its target 6 × His-tagged histone H1x (human) (UniProt Q92522).
Assay [4] has as its target 6 × His-tagged histone H1.1 (human) (UniProt Q02539). This is another data set of the same source.
Assay [5] concerns the target 6 × His-tagged histone H1x (human) (UniProt Q92522). This is another data set of the same source.

Where two headings read alike, the source gives them in different places. No constants are given. Whether binding was seen depends on the method and setting. In cells and extracts the contact can be indirect. These calls come from enrichment with a bait or labelling near it, and not all partners need be listed. For some of these results: A no says only that the protein was not detected with the bait.

Take CDK11b (from UniProt P21127 1-795): the binding entry in assay [1], in assay [2] and in assay [3] was “binds” in each case.

In the case of CHD7 (from UniProt Q9P2D1 1-2997), in assay [2], the binding result is reported as “binds”.

On to CHD8 (from UniProt Q9HCK8 1-2581), for which the binding result in assay [1] is reported as “binds”; in assay [2], “binds”; in assay [3], “no binding”.

As to DDX21 (from UniProt Q9NR30 1-783), the binding entry in assay [2] was “binds”.

Consider “NASP (nuclear antigenic sperm protein) (from UniProt P49321 1-788)”, for which the binding entry in assay [1], in assay [2] and in assay [3] was “no binding” each time.

Take PABP1 (from UniProt P11940 1-636): the binding entry in assay [1] was “binds”.

With PABP3 (from UniProt Q9H361 1-631), the binding entry in assay [1] is listed as “binds”.

Take SET (from UniProt Q01105 1-290): the binding result in assay [1] was “binds”.

As for “SSRP subunit of the FACT complex (from UniProt Q08945 1-709)”, the binding result in assay [1], in assay [2] and in assay [3] was “binds” throughout.

As for “Spt16, second subunit of FACT (from UniProt Q9Y5B9 1-1047)”, in assay [1], the binding result is “binds”.

Turning to TAF5 (from UniProt Q15542 1-800), in assay [2], the binding entry is “binds”.

For the molecule TIF1B (from UniProt Q13263 1-835), in assay [2], the binding result is on record as “binds”.

In the case of “VIR (virilizer homolog) (from UniProt Q69YN4 1-1812)”, the binding result in assay [1], in assay [2] and in assay [3] was “binds” each time.

Take “Y box-binding protein YB2 (from UniProt Q9Y2T7 1-364)”: the binding entry in assay [1], in assay [2] and in assay [3] was “binds” throughout.

As for YBX1 (from UniProt P67809 1-324), the binding entry in assay [1], in assay [2] and in assay [3] was “binds” throughout.

As for ZC3H13 (from UniProt Q5T200 1-1668), the binding entry in assay [1], in assay [2] and in assay [3] was “binds” in each case.

Regarding “insulin-like growth factor 2 mRNA-binding protein 3 (IGF2BP3) (from UniProt O00425 1-579)”, the binding result in assay [3] is listed as “binds”.

As to “nuclear pore complex protein Tpr (translocated promoter region) (from UniProt P12270 1-2363)”, the binding result in assay [1] and in assay [2] was “binds” throughout.

With “nucleophosmin (NPM1) (from UniProt P06748 1-294)”, the binding result in assay [1], in assay [2] and in assay [3] was “binds” each time.

As for “protein VPRBP (also known as DDB1-CUL4-associated factor 1, DCAF1) (from UniProt Q9Y4B6 1-1507)”, the binding result in assay [2] was “binds”.

On to “ubiquitin hydrolase UBP34 (from UniProt Q70CQ2 1-3546)”, for which the binding entry in assay [1], in assay [2] and in assay [3] was “binds” throughout.

For “zinc finger protein ZNF16 (from UniProt P17020 1-682)”, the binding entry in assay [1] and in assay [3] was “binds” in each case.

B1: NDE1 (protein, UniProt Q9NXR1 1-335)
chain: MEDSGKTFSSEEEEANYWKDLAMTYKQRAENTQEELREFQEGSREYEAELETQLQQIETRNRDLLSENNRLRMELETIKEKFEVQHSEGYRQISALEDDLAQTKAIKDQLQKYIRELEQANDDLERAKRATIMSLEDFEQRLNQAIERNAFLESELDEKENLLESVQRLKDEARDLRQELAVQQKQEKPRTPMPSSVEAERTDTAVQATGSVPSTPIAHRGPSSSLNTPGSFRRGLDDSTGGTPLTPAARISALNIVGDLLRKVGALESKLASCRNLVYDQSPNRTGGPASGRSSKNRDGGERRPSSTSVPLGDKGLDTSCRWLSKSTTRSSSSC
B1: the binding entry in assay [4] is on record as “binds”.

B2: SRSF3 (protein, UniProt P84103 1-164)
chain: MHRDSCPLDCKVYVGNLGNNGNKTELERAFGYYGPLRSVWVARNPPGFAFVEFEDPRDAADAVRELDGRTLCGCRVRVELSNGEKRSRNRGPPPSWGRRPRDDYRRRSPPPRRRSPRRRSFSRSRSRSLSRDRRRERSLSRERNHKPSRSFSRSRSRSRSNERK
For B2, the binding entry in assay [4] and in assay [5] was “binds” throughout.

B3: RNaseP subunit POP1 (protein, UniProt Q99575 1-1024)
chain: MSNAKERKHAKKMRNQPTNVTLSSGFVADRGVKHHSGGEKPFQAQKQEPHPGTSRQRQTRVNPHSLPDPEVNEQSSSKGMFRKKGGWKAGPEGTSQEIPKYITASTFAQARAAEISAMLKAVTQKSSNSLVFQTLPRHMRRRAMSHNVKRLPRRLQEIAQKEAEKAVHQKKEHSKNKCHKARRCHMNRTLEFNRRQKKNIWLETHIWHAKRFHMVKKWGYCLGERPTVKSHRACYRAMTNRCLLQDLSYYCCLELKGKEEEILKALSGMCNIDTGLTFAAVHCLSGKRQGSLVLYRVNKYPREMLGPVTFIWKSQRTPGDPSESRQLWIWLHPTLKQDILEEIKAACQCVEPIKSAVCIADPLPTPSQEKSQTELPDEKIGKKRKRKDDGENAKPIKKIIGDGTRDPCLPYSWISPTTGIIISDLTMEMNRFRLIGPLSHSILTEAIKAASVHTVGEDTEETPHRWWIETCKKPDSVSLHCRQEAIFELLGGITSPAEIPAGTILGLTVGDPRINLPQKKSKALPNPEKCQDNEKVRQLLLEGVPVECTHSFIWNQDICKSVTENKISDQDLNRMRSELLVPGSQLILGPHESKIPILLIQQPGKVTGEDRLGWGSGWDVLLPKGWGMAFWIPFIYRGVRVGGLKESAVHSQYKRSPNVPGDFPDCPAGMLFAEEQAKNLLEKYKRRPPAKRPNYVKLGTLAPFCCPWEQLTQDWESRVQAYEEPSVASSPNGKESDLRRSEVPCAPMPKKTHQPSDEVGTSIEHPREAEEVMDAGCQESAGPERITDQEASENHVAATGSHLCVLRSRKLLKQLSAWCGPSSEDSRGGRRAPGRGQQGLTREACLSILGHFPRALVWVSLSLLSKGSPEPHTMICVPAKEDFLQLHEDWHYCGPQESKHSDPFRSKILKQKEKKKREKRQKPGRASSDGPAGEEPVAGQEALTLGLWSGPLPRVTLHCSRTLLGFVTQGDFSMAVGCGEALGFVSLTGLLDMLSSQPAAQRGLVLLRPPASLQYRFARIAIEV
As for B3, in assay [4], the binding entry is reported as “binds”.

B4: ubiquitin carboxyl-terminal hydrolase 15 (USP15) (protein, UniProt Q9Y4E8 1-981)
chain: MAEGGAADLDTQRSDIATLLKTSLRKGDTWYLVDSRWFKQWKKYVGFDSWDKYQMGDQNVYPGPIDNSGLLKDGDAQSLKEHLIDELDYILLPTEGWNKLVSWYTLMEGQEPIARKVVEQGMFVKHCKVEVYLTELKLCENGNMNNVVTRRFSKADTIDTIEKEIRKIFSIPDEKETRLWNKYMSNTFEPLNKPDSTIQDAGLYQGQVLVIEQKNEDGTWPRGPSTPKSPGASNFSTLPKISPSSLSNNYNNMNNRNVKNSNYCLPSYTAYKNYDYSEPGRNNEQPGLCGLSNLGNTCFMNSAIQCLSNTPPLTEYFLNDKYQEELNFDNPLGMRGEIAKSYAELIKQMWSGKFSYVTPRAFKTQVGRFAPQFSGYQQQDCQELLAFLLDGLHEDLNRIRKKPYIQLKDADGRPDKVVAEEAWENHLKRNDSIIVDIFHGLFKSTLVCPECAKISVTFDPFCYLTLPLPMKKERTLEVYLVRMDPLTKPMQYKVVVPKIGNILDLCTALSALSGIPADKMIVTDIYNHRFHRIFAMDENLSSIMERDDIYVFEININRTEDTEHVIIPVCLREKFRHSSYTHHTGSSLFGQPFLMAVPRNNTEDKLYNLLLLRMCRYVKISTETEETEGSLHCCKDQNINGNGPNGIHEEGSPSEMETDEPDDESSQDQELPSENENSQSEDSVGGDNDSENGLCTEDTCKGQLTGHKKRLFTFQFNNLGNTDINYIKDDTRHIRFDDRQLRLDERSFLALDWDPDLKKRYFDENAAEDFEKHESVEYKPPKKPFVKLKDCIELFTTKEKLGAEDPWYCPNCKEHQQATKKLDLWSLPPVLVVHLKRFSYSRYMRDKLDTLVDFPINDLDMSEFLINPNAGPCRYNLIAVSNHYGGMGGGHYTAFAKNKDDGKWYYFDDSSVSTASEDQIVSKAAYVLFYQRQDTFSGTGFFPLDRETKGASAATGIPLESDEDSNDNDNDIENENCMHTN
In the case of B4, the binding entry in assay [5] was “binds”.
